Results deposited as PubChem BioAssay AID743121 (NCATS, 2013)

Aim: 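Partners whose loss is lethal together with topoisomerase I blockade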 (primary screen)
Cells: MDA-MB-231 cells, a human breast cancer line
Reagent: single siRNA against human genes, 20 nM siRNA (0.8 pmol per well)
Time to read-out: 120 h (drug added 48 h after transfection, read 72 h later)
Conditions: camptothecin 20 nM (about EC30) for 72 h; vehicle 0.1% DMSO in parallel plates
Detection: 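CellTiter-Glo ATP signal, scaled to control siRNA as percent viability; sensitisation given as log2 of untreated divided by camptothecin-treated viability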
Direction: log2 vehicle/camptothecin viability: higher = stronger sensitisation to camptothecin; viability with camptothecin: higher = more viable cells
Units: viability with camptothecin in % of control
Active means: 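Each gene scored by redundant siRNA activity (RSA) over its individual siRNA ratios; a gene is called active at p < 0.001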
Here is an unselected part of about 26,000 deposited reagents. In the full data, 167 (0.63%) got an active call. 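Calls are per gene from RSA p-values that are not deposited; an individual active-marked siRNA can sensitise only weakly.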 The numbers tell different reagents against one gene apart. Further read-outs or replicates are left out here.

With C3AR1 #1, what was measured?
log2 vehicle/camptothecin viability: -0.00978; viability with camptothecin: 62.3; activity call: inactive

With C3AR1 #2, what does the deposit list?
log2 vehicle/camptothecin viability: -0.37; viability with camptothecin: 109; activity call: inactive

Which result is listed for C3AR1 #3?
log2 vehicle/camptothecin viability: -0.429; viability with camptothecin: 117; activity call: inactive

What did the screen give for C3AR1 #4?
log2 vehicle/camptothecin viability: -0.193; viability with camptothecin: 94.9; activity call: inactive

How did the screen score IL27RA #1?
log2 vehicle/camptothecin viability: 0.189; viability with camptothecin: 42.4; activity call: inactive

For IL27RA #2, what was measured?
log2 vehicle/camptothecin viability: 0.0941; viability with camptothecin: 17.1; activity call: inactive

How did the screen score IL27RA #3?
log2 vehicle/camptothecin viability: 0.0601; viability with camptothecin: 76.3; activity call: inactive

What did the screen give for KIF12 #1?
log2 vehicle/camptothecin viability: -0.465; viability with camptothecin: 94; activity call: inactive

How did the screen score KIF12 #2?
log2 vehicle/camptothecin viability: 0.429; viability with camptothecin: 72.4; activity call: inactive

With KIF12 #3, what was measured?
log2 vehicle/camptothecin viability: -0.134; viability with camptothecin: 56.3; activity call: inactive

Which result is listed for KIF12 #4?
log2 vehicle/camptothecin viability: -0.00961; viability with camptothecin: 86; activity call: inactive

What did the screen give for CLIC4 #1?
log2 vehicle/camptothecin viability: 0.122; viability with camptothecin: 97.5; activity call: inactive

With CLIC4 #2, how do the results read?
log2 vehicle/camptothecin viability: -0.468; viability with camptothecin: 79; activity call: inactive

What did the screen give for CLIC4 #3?
log2 vehicle/camptothecin viability: -0.031; viability with camptothecin: 120; activity call: inactive

With CLIC4 #4, what does the deposit list?
log2 vehicle/camptothecin viability: -0.396; viability with camptothecin: 65; activity call: inactive

What did the screen give for SPTLC1 #1?
log2 vehicle/camptothecin viability: -0.301; viability with camptothecin: 49.1; activity call: inactive

For SPTLC1 #2, how do the results read?
log2 vehicle/camptothecin viability: 0.0535; viability with camptothecin: 15.2; activity call: inactive

What did the screen give for SPTLC1 #3?
log2 vehicle/camptothecin viability: -0.167; viability with camptothecin: 59.8; activity call: inactive

What did the screen give for SPTLC1 #4?
log2 vehicle/camptothecin viability: -0.0653; viability with camptothecin: 84.3; activity call: inactive

What is on record for SPTLC1 #5?
log2 vehicle/camptothecin viability: -0.0647; viability with camptothecin: 100; activity call: inactive

For SPTLC1 #6, what does the deposit list?
log2 vehicle/camptothecin viability: 0.0291; viability with camptothecin: 79.2; activity call: inactive

Which result is listed for SPTLC1 #7?
log2 vehicle/camptothecin viability: -0.537; viability with camptothecin: 70.1; activity call: inactive

What did the screen give for SPTLC1 #8?
log2 vehicle/camptothecin viability: -0.501; viability with camptothecin: 77.5; activity call: inactive

With ABCB8 #1, what was measured?
log2 vehicle/camptothecin viability: 0.204; viability with camptothecin: 53.9; activity call: inactive

For ABCB8 #2, how do the results read?
log2 vehicle/camptothecin viability: -0.512; viability with camptothecin: 54.9; activity call: inactive

For ABCB8 #3, what does the deposit list?
log2 vehicle/camptothecin viability: 0.0688; viability with camptothecin: 84.6; activity call: inactive

With ABCB8 #4, what does the deposit list?
log2 vehicle/camptothecin viability: -0.1; viability with camptothecin: 48; activity call: inactive

For ITGA11 #1, what does the deposit list?
log2 vehicle/camptothecin viability: -0.066; viability with camptothecin: 111; activity call: inactive

What is on record for ITGA11 #2?
log2 vehicle/camptothecin viability: -0.184; viability with camptothecin: 92.3; activity call: inactive

Which result is listed for ITGA11 #3?
log2 vehicle/camptothecin viability: -0.547; viability with camptothecin: 76.7; activity call: inactive

What is on record for HDAC6 #1?
log2 vehicle/camptothecin viability: -0.126; viability with camptothecin: 84.7; activity call: inactive

What is on record for HDAC6 #2?
log2 vehicle/camptothecin viability: -0.18; viability with camptothecin: 73.9; activity call: inactive

For HDAC6 #3, what was measured?
log2 vehicle/camptothecin viability: 0.0197; viability with camptothecin: 91.9; activity call: inactive

For HDAC6 #4, how do the results read?
log2 vehicle/camptothecin viability: -0.0695; viability with camptothecin: 100; activity call: inactive

What is on record for GPR162 #1?
log2 vehicle/camptothecin viability: -0.0554; viability with camptothecin: 49.6; activity call: inactive

For GPR162 #2, how do the results read?
log2 vehicle/camptothecin viability: -0.234; viability with camptothecin: 113; activity call: inactive

With GPR162 #3, what was measured?
log2 vehicle/camptothecin viability: -0.349; viability with camptothecin: 75.8; activity call: inactive

What is on record for GPR162 #4?
log2 vehicle/camptothecin viability: -0.0306; viability with camptothecin: 28.7; activity call: inactive

For OFD1 #1, how do the results read?
log2 vehicle/camptothecin viability: -0.109; viability with camptothecin: 103; activity call: inactive

With OFD1 #2, what was measured?
log2 vehicle/camptothecin viability: 1.14; viability with camptothecin: 44.7; activity call: inactive

With OFD1 #3, how do the results read?
log2 vehicle/camptothecin viability: -0.422; viability with camptothecin: 77.5; activity call: inactive

What is on record for OFD1 #4?
log2 vehicle/camptothecin viability: 0.000402; viability with camptothecin: 101; activity call: inactive

What is on record for FAF1 #1?
log2 vehicle/camptothecin viability: 0.0256; viability with camptothecin: 102; activity call: inactive

For FAF1 #2, how do the results read?
log2 vehicle/camptothecin viability: -0.401; viability with camptothecin: 105; activity call: inactive

Which result is listed for FAF1 #3?
log2 vehicle/camptothecin viability: -0.255; viability with camptothecin: 71.2; activity call: inactive

Which result is listed for FAF1 #4?
log2 vehicle/camptothecin viability: -0.173; viability with camptothecin: 57.8; activity call: inactive

7 consecutive entries from above, for reference:
ITGA11 #3 → log2 vehicle/camptothecin viability = -0.547; viability with camptothecin = 76.7; activity call = inactive
HDAC6 #1 → log2 vehicle/camptothecin viability = -0.126; viability with camptothecin = 84.7; activity call = inactive
HDAC6 #2 → log2 vehicle/camptothecin viability = -0.18; viability with camptothecin = 73.9; activity call = inactive
HDAC6 #3 → log2 vehicle/camptothecin viability = 0.0197; viability with camptothecin = 91.9; activity call = inactive
HDAC6 #4 → log2 vehicle/camptothecin viability = -0.0695; viability with camptothecin = 100; activity call = inactive
GPR162 #1 → log2 vehicle/camptothecin viability = -0.0554; viability with camptothecin = 49.6; activity call = inactive
GPR162 #2 → log2 vehicle/camptothecin viability = -0.234; viability with camptothecin = 113; activity call = inactive
